Key:
Type in all cases: physicochemical
[1] = Enrichment of alcohol/water solutions on 3 Angstrom molecular sieve columns; conditions: for Cproduct/CFeed: alcohol concentration in product stream to feed stream; for Enrichment ROH/H2O, product stream: downstream of 3 Angstrom molecular sieve column, about 10 ml/min; for Enrichment ROH/H2O, feed stream: feed to 3 Angstrom molecular sieve column
[2] = Vacuum distillation of aqueous alcohol solutions at approximately 50 mBar
[3] = Azeotropic distillation of dilute aqueous alcohol solution at about 990 mbar; conditions: […] isobutanol or […] 1-butanol in water
[4] = Vacuum distillation with packed bead reflux column at approximately 75 mBar
[5] = Azeotropic distillation of fermentation broth at about 155 mbar; conditions: fermentation solution containing 6 g/L isobutanol, 155 mbar absolute
[6] = 5 g/L solution, approximately 50 mBar
[7] = 5 g/L solution, approximately 50 mBar (single phase material)
[8] = 15 g/L solution, approximately 50 mBar
[9] = 40 g/L solution, approximately 50 mBar

Row | SMILES | Cproduct/CFeed [1] | Enrichment ROH/H2O, product stream [1] | Enrichment ROH/H2O, feed stream [1] | Concentration in Vapor Phase (increase from starting solution) [2, 6] | Final Pot alcohol concentration [2, 6] | Collection: Heavy alcohol concentration [2, 7] | Collection: Heavy alcohol concentration [2, 8] | Collection: Light alcohol concentration [2, 8] | Concentration in Vapor Phase (increase from starting solution) [2, 8] | Final Pot alcohol concentration [2, 8] | Collection: Heavy alcohol concentration [2, 9] | Collection: Light alcohol concentration [2, 9] | Concentration in Vapor Phase (increase from starting solution) [2, 9] | Final Pot alcohol concentration [2, 9] | other results
1 | CC(C)CCO [Isopentanol, isopentanol] | 1.1 | 2724 | 9 | 7x | 3.4 g/L | 31.2 g/L | 34.1 g/L | 724.7 g/L | 17x | 10.2 g/L | 35.9 g/L | 763.7 g/L | 10x | 23.7 g/L | –
2 | CC(C)O [Isopropanol, isopropanol] | 1.1 | 339 | 14 | 25x | 3.8 g/L | 126.3 g/L | 184.2 g/L | – | 12x | 12.3 g/L | 347.5 g/L | – | 7x | 31.9 g/L | –
3 | CC(C)CO [i-BuOH, 2-methyl-1-propanol] | – | 1147 | 6 | 21x | 3.5 g/L | 86.7 g/L | 86.9 g/L | 717.8 g/L | 17x | 10.7 g/L | 91.9 g/L | 706.6 g/L | 10x | 36.8 g/L | Alcohol concentration of heavy water rich phase of overhead condensate [3]: 86 g/L; Alcohol concentration of light phase of overhead condensate [3]: 670 g/L; Alcohol concentration of post distillation sample in flask [3]: 17 g/L; Isobutanol concentration in the reaction pot after second part ([4]; maximum pot temperature 40° C.): 1.5 g/L; Isobutanol concentration in the distillation pot after first part ([4]; single phase solution from 400 L fermentation): 17 g/L; Post distillation pot sample [5]: 3 g/L; Composition of the light phase of overhead condensate ([5]; 27-30° C.): 623 g/L

Source: patent US20140360376A1, “RECOVERY OF HIGHER ALCOHOLS FROM DILUTE AQUEOUS SOLUTIONS” (GEVO, INC., priority 2007, published 2014)
